This note sets out measurements from doi:10.1101/2021.01.08.425994.

By UniProt entry, the sequences of proteins in these tests, tags left out. Where a name states a change or a piece, a line headed by the entry shows the natural chain unless it says otherwise.
UniProt O08785: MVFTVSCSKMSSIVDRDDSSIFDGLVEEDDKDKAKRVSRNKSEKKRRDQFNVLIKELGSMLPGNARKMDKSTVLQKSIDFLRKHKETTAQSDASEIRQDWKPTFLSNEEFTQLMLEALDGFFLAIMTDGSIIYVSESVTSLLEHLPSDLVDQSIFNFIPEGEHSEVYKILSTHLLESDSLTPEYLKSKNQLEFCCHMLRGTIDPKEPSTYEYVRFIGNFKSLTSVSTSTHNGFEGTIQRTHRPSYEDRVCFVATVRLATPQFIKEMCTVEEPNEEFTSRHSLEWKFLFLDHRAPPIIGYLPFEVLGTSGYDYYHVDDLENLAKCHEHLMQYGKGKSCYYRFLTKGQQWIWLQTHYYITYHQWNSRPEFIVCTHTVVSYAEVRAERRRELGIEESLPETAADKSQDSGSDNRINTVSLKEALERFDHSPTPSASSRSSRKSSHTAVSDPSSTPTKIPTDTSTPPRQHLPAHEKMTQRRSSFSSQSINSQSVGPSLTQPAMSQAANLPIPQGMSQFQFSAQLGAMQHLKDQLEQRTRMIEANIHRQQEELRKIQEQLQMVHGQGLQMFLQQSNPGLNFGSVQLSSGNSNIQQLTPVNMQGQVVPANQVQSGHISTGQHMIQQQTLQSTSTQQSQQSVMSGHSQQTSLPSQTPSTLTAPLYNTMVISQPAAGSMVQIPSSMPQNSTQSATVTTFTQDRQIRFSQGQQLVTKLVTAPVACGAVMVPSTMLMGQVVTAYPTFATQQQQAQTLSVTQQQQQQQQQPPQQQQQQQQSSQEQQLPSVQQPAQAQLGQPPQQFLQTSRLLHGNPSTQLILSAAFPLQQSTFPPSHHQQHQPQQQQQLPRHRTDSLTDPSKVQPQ
UniProt Q16526: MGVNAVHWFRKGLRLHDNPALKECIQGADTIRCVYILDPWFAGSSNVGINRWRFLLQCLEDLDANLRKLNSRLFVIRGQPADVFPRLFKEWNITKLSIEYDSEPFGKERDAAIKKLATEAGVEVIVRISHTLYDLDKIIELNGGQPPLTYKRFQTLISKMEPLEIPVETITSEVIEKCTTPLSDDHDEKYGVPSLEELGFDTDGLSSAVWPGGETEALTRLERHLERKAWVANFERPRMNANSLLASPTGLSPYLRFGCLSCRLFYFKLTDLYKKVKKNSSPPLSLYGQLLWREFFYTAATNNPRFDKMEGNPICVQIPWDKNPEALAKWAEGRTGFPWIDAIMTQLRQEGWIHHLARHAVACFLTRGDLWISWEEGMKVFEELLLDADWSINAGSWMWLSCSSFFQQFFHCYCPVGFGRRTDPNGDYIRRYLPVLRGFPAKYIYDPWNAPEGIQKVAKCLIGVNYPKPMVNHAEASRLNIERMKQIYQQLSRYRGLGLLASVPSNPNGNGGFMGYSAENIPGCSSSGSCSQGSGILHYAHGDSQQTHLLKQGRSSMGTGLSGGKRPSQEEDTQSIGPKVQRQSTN

These are yes or no findings as the source states them, for the method shown. In cells and extracts the contact can be indirect. Some entries that bind do so weakly or less than the wild type.

The target in this assay is CLOCK:BMAL1 heterodimer (overexpressed) (not stated | mouse) (UniProt O08785). Kind of assay: co-IP.

In the case of “human CRY1 D307H (from UniProt Q16526 1-586)”, the binding entry is recorded as “binds weakly”.
